No constants are given. Whether binding was seen depends on the method and setting. Binding seen in cells or lysates may run through a third protein. Some results given as binding are weak or reduced against the parent protein; the word gives no strength.
Molecular target: phosphorylated ATM (human (endogenous in PSC27)) (UniProt Q13315)
Experiment: co-IP; IP with anti-p-ATM (IgG as control) from lysates of PSC27 cells treated with BLEO (50 µg/mL, 12 h), immunoblot; also done with cells treated with the HSPA8 inhibitor VER155008 (interaction with HSPA8 markedly reduced)

Chains of the proteins cited; added tags and fusions are not shown.
UniProt Q13315: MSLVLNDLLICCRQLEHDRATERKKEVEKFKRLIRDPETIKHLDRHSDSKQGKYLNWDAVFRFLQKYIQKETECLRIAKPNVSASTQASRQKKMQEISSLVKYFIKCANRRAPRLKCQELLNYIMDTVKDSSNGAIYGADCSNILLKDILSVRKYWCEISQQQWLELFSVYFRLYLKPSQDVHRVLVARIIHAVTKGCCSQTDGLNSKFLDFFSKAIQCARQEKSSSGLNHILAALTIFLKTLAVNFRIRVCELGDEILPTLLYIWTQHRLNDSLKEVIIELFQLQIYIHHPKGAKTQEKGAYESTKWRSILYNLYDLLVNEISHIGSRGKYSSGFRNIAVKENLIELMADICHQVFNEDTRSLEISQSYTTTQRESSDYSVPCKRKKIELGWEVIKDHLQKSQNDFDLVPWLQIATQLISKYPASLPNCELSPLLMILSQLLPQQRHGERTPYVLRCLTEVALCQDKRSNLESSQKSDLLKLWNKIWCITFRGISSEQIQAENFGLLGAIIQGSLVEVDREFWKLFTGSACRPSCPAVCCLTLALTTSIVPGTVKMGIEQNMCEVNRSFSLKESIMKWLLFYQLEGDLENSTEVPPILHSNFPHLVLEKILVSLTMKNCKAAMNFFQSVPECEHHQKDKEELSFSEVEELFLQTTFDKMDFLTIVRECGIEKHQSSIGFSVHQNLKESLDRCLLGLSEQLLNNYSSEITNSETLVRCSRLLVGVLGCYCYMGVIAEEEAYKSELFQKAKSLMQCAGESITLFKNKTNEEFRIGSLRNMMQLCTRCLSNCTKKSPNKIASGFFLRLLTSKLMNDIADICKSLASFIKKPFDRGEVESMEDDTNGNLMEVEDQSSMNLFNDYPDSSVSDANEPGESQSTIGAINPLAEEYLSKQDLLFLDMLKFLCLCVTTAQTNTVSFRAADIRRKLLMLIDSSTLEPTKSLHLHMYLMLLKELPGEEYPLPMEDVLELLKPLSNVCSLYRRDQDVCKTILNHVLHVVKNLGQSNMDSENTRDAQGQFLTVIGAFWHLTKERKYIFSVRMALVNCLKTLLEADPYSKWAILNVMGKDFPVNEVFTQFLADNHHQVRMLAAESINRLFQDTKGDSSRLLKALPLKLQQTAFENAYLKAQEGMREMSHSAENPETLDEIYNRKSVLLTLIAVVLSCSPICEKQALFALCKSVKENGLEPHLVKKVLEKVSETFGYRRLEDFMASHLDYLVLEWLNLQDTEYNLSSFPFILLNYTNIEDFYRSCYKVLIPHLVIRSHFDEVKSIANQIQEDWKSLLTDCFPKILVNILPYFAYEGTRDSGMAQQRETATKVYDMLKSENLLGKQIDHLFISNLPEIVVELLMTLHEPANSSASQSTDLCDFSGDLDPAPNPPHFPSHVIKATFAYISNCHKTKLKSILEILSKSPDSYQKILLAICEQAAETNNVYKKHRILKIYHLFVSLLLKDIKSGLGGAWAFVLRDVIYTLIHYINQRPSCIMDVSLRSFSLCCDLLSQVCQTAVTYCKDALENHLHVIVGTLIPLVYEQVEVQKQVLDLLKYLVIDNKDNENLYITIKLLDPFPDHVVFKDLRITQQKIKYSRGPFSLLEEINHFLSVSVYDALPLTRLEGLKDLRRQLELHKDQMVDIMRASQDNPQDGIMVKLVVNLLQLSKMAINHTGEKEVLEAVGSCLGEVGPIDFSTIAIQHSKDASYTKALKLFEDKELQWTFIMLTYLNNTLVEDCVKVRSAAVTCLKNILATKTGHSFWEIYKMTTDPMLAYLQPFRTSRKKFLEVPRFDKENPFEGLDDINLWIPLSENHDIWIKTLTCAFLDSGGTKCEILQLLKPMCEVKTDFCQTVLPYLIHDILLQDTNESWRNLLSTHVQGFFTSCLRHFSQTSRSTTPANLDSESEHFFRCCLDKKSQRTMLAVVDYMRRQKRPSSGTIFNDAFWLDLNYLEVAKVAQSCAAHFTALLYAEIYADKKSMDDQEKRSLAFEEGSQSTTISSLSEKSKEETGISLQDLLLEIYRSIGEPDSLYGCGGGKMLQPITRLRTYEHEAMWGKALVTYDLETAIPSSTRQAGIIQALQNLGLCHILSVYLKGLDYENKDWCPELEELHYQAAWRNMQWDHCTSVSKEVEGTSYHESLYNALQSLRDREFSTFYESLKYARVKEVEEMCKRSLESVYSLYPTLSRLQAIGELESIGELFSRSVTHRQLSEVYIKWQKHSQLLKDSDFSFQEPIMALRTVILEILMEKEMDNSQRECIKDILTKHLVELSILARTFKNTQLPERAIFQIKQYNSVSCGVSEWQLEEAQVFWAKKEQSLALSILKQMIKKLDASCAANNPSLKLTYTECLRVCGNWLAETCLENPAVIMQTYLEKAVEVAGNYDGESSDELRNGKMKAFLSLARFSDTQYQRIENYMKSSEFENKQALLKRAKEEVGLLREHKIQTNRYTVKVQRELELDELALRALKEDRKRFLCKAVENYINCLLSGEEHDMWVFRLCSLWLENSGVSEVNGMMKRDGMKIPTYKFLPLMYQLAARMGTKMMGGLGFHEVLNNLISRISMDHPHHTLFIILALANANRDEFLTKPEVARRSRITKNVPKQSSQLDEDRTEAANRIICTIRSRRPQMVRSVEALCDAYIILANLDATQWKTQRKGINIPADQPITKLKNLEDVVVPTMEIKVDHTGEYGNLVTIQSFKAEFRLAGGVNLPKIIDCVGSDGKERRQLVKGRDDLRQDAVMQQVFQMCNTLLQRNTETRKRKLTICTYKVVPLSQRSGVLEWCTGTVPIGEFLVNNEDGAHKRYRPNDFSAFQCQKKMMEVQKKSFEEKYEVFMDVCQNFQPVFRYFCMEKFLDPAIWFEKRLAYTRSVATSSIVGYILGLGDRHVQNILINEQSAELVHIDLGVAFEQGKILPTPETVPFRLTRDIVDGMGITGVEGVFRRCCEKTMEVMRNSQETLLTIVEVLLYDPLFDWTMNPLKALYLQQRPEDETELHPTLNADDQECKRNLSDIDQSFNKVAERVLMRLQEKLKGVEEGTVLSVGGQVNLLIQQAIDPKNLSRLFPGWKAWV
UniProt P11142: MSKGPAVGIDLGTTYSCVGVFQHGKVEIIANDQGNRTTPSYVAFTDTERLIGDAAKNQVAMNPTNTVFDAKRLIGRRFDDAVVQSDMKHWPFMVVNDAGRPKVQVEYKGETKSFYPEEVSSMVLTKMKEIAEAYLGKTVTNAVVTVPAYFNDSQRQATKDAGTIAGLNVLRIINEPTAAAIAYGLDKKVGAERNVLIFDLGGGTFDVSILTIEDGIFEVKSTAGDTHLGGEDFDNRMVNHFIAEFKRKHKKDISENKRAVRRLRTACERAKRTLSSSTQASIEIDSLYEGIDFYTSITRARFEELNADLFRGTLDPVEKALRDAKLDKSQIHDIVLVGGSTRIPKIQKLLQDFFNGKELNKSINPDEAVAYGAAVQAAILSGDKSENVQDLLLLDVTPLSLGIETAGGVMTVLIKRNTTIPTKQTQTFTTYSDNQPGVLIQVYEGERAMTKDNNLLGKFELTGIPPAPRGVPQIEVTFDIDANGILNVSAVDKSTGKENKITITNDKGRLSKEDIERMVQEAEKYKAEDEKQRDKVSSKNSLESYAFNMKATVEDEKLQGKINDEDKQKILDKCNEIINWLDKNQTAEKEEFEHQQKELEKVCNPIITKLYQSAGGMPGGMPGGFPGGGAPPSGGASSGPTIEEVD
UniProt P06748: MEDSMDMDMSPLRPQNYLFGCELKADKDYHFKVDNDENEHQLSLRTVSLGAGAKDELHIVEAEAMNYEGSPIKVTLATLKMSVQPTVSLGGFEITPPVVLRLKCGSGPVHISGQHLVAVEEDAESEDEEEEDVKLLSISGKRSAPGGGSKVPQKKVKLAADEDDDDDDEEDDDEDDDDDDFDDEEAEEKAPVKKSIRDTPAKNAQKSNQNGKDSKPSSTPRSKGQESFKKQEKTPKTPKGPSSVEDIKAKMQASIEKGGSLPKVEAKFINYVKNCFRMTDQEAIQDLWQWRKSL

binding	Substance
binds	HSPA8 (from UniProt P11142 1-646)
binds	NPM1 (from UniProt P06748 1-294)

— article PMC12120719, “Targeting Senescence with Apigenin Improves Chemotherapeutic Efficacy and Ameliorates Age‐Related Conditions in Mice” (Advanced Science, 2025)
